Laboratory results taken from PubChem BioAssay AID1439 (NMMLSC, 2008).
Out of some 220,000 compounds screened, about 770 (0.35%) were called active. The inconclusive results got no clear call from the source; some entries with a clear call stand among them for comparison. Rule as the data show it: active = binding response below about 49% or above about 150%; inconclusive = no clear call, values can overlap the other calls; inactive = in between.

Protein sequences, listed by entry. Tags and fused reporters are not part of them.
UniProt P09471, whole entry, looked up: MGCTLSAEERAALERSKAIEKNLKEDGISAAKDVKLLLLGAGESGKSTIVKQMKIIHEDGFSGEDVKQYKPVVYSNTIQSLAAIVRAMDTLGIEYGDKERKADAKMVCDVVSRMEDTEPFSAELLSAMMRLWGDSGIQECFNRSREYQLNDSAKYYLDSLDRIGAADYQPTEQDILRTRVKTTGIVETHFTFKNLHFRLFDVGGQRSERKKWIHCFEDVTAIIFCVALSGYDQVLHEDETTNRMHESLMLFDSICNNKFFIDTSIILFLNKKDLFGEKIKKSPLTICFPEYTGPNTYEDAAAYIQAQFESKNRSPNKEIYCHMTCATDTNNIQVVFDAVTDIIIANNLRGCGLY

These compounds were tested against Guanine nucleotide-binding protein G(o) subunit alpha (Homo sapiens) (UniProt P09471) (assay: RGS7-Galphao binding modulators, primary screen, biochemical, multiplexed bead flow cytometry (AID 1439;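 also: fluorescent Galphao held in activated GDP-AlF4 state binding bead-coupled RGS7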)). Conditions: at 10 µM, actives lie on both sides.
`Cc1c(NS(=O)(=O)c2cccs2)cccc1-c1nc2cccnc2s1` was tested, and the binding response (% of control) was inconclusive: 692%. With `NNC(=S)Nc1ccc(S(=O)(=O)N2CCCCC2)cc1` the binding response (% of control) was inconclusive: 74.2%. For `O=c1ccc(=O)n(-c2ccccc2)[nH]1`, the binding response (% of control) was inconclusive: 56.2%. `C(=N\Nc1nc(-c2ccccn2)nc2ccccc12)/c1ccccc1` was tested, and the binding response (% of control) was inconclusive: 118%. In the case of `Cc1ccc2c(c1)C(=O)CC1(CCC(C(C)(C)C)CC1)O2` (centres undefined), the binding response (% of control) is reported as inconclusive: 80.6%. `CCOC(=O)c1ccc(Oc2c(C)oc3cc(OS(C)(=O)=O)ccc3c2=O)cc1` was tested, and the binding response (% of control) was inactive: 99.9%. In the case of `CCOC(=O)C1C(C(=O)NN)C1C(=O)Nc1ccccc1` (centres undefined), the binding response (% of control) is reported as inactive: 103%. For `Cn1c(=O)[nH]c(=O)c2c1nc1n2CCS1`, the binding response (% of control) was inconclusive: 105%. `COc1ccc(CCNC(=O)CCn2c(SCC(=O)N3CCCC3)nc3ccccc3c2=O)cc1OC` was tested, and the binding response (% of control) was inconclusive: 94.9%. For `Cc1cc(C)c(C2=NOC3C4CCC(C4)C23)c(C)c1` (centres undefined), the binding response (% of control) was inactive: 94.3%. For `NNC(=O)Cn1c(-c2ccccc2)cc(=O)n2ncnc12`, the binding response (% of control) was inconclusive: 102%. In the case of `NC(=O)COn1c(SCC(N)=O)nc2ccccc2c1=O`, the binding response (% of control) is reported as inconclusive: 99.4%. For `CCC(CC)NC(=O)CN(c1ccccc1OC)S(=O)(=O)c1cccs1`, the binding response (% of control) was inconclusive: 84.9%. In the case of `CC1(c2nnc(Cc3ccccc3)o2)CC(c2ccc([N+](=O)[O-])cc2)=NO1` (centres undefined), the binding response (% of control) is reported as inconclusive: 85.9%. `O=C(NC1CCN(C(=O)C2CCCCC2)CC1)c1ccccc1` was tested, and the binding response (% of control) was inconclusive: 178%. `COc1ccccc1-n1c(SCC(N)=O)nnc1-c1ccc(S(=O)(=O)N2CCCCC2)cc1` was tested, and the binding response (% of control) was inactive: 98.2%. With `O=C(O)/C=C/C(=O)NCCc1ccc(Cl)cc1` the binding response (% of control) was inconclusive: 179%. For `CC1CCN(c2c(NCC3CCC(C(=O)NCCC4=CCCCC4)CC3)c(=O)c2=O)CC1` (centres undefined), the binding response (% of control) was inconclusive: 86.3%. In the case of `CO/N=C1\CCCc2c(C(=O)NN)sc(SC)c21`, the binding response (% of control) is reported as inconclusive: 107%. With `CN(C(=O)c1cccn(Cc2ccccc2)c1=O)c1ccccc1` the binding response (% of control) was inconclusive: 93.5%. In the case of `CCN(CC)S(=O)(=O)c1ccc(C(=O)NC(=S)N(CCC#N)Cc2cccnc2)cc1`, the binding response (% of control) is reported as inconclusive: 109%. With `O=C(Cn1ncc(Cl)c(Cl)c1=O)NC1CCS(=O)(=O)C1` (centres undefined) the binding response (% of control) was inconclusive: 44%. In the case of `CCC(=O)N1N=C(c2c(O)n(C)c(=O)n(C)c2=O)CC1c1ccccc1` (centres undefined), the binding response (% of control) is reported as inconclusive: 109%. `CC(C)NC(=O)NC(=O)COC(=O)C1(C)CC1(Cl)Cl` (centres undefined) was tested, and the binding response (% of control) was inconclusive: 101%. For `Nc1nnc(SCC(=O)Nc2cc(S(=O)(=O)N3CCOCC3)ccc2Cl)s1`, the binding response (% of control) was inconclusive: 102%. In the case of `COC(=O)CSc1nccc(C)n1`, the binding response (% of control) is reported as inactive: 101%. `CC(=O)O[C@H]1CC[C@]2(C)[C@H]3CC=C4[C@@H]5[C@@H](C)[C@H](C)CC[C@]5(C(=O)O)CC[C@@]4(C)[C@]3(C)CC[C@H]2C1(C)C` was tested, and the binding response (% of control) was inconclusive: 99.7%. With `c1ccc2nc3c(cc2c1)CCCCC3` the binding response (% of control) was inconclusive: 23%. In the case of `Cc1ccccc1S(=O)(=O)Cc1ccc(C(=O)NCc2ccc(F)cc2)o1`, the binding response (% of control) is reported as inactive: 98.2%. With `CCC(=O)NC1=C(NC(C)c2ccccc2)C(=O)c2ccccc2C1=O` (centres undefined) the binding response (% of control) was inactive: 107%. In the case of `OCCN=C1CCCc2c1[nH]c1ccc(Cl)cc21`, the binding response (% of control) is reported as inconclusive: 107%. In the case of `CCOC(=O)CS(=O)(=O)c1ccc(O)cc1`, the binding response (% of control) is reported as inconclusive: 117%. In the case of `Cn1c(SCCC#N)nnc1-c1ccc(F)cc1`, the binding response (% of control) is reported as inconclusive: 102%. With `O=C1CC(c2ccccc2)CC(O)=C1C=NCCN1CCN(Cc2ccccc2)CC1` (centres undefined) the binding response (% of control) was inconclusive: 59.2%. `O=C1CCNc2c(Cl)cccc21` was tested, and the binding response (% of control) was inconclusive: 67.2%. `O=C(Cn1nc2n(c1=O)-c1ccccc1SC2)N/N=C/c1cccnc1` was tested, and the binding response (% of control) was inconclusive: 136%. In the case of `N#CC1=C2SCCN2C(=O)C(C#N)C12CCCCC2` (centres undefined), the binding response (% of control) is reported as active: -0.92%. In the case of `c1ccc(COc2ccccc2CNC23CC4CC(CC(C4)C2)C3)cc1`, the binding response (% of control) is reported as inactive: 95.1%. `Cc1ccc(N/C=C(/C#N)c2ccsc2)cc1` was tested, and the binding response (% of control) was inactive: 99.9%. `COC(=O)c1scc2c(Oc3ccccc3)cc(C(F)(F)F)nc12` was tested, and the binding response (% of control) was inconclusive: 74.6%. `Oc1ccc(C(=S)N2CCN(Cc3ccccc3)CC2)cc1` was tested, and the binding response (% of control) was inconclusive: 89.9%. For `COC(=O)c1[nH]c2cccc(OC)c2c1NC(=O)CCN1CCC(C)CC1`, the binding response (% of control) was inactive: 100%. In the case of `COC(=O)CCc1c(C)c(C(=O)c2ccc(F)cc2)c2ccccn12`, the binding response (% of control) is reported as inconclusive: 90.6%. `COc1ccc(OCc2csc(N)n2)cc1` was tested, and the binding response (% of control) was inactive: 103%. `CCCC(=O)c1ccc(O)cc1O` was tested, and the binding response (% of control) was inconclusive: 101%. In the case of `CC(=O)c1ccc(NC(=O)C(C)OC(=O)c2ccc3c(c2)nc(C)n3-c2ccccc2)cc1` (centres undefined), the binding response (% of control) is reported as inactive: 110%. With `CC1(c2nnc(-c3ccc(F)cc3)o2)CC(c2ccc(F)cc2)=NO1` (centres undefined) the binding response (% of control) was inconclusive: 73.8%. For `CNc1nc(SC)nc(N(C)C#N)n1`, the binding response (% of control) was inconclusive: 90.1%. In the case of `Fc1cccc(CSc2nc3ncc(Cl)cc3[nH]2)c1`, the binding response (% of control) is reported as inconclusive: 58.3%. With `CCN(c1ccccc1)S(=O)(=O)c1ccc(OC)c(NC(=O)C2CC(=O)N(Cc3ccccc3)C2)c1` (centres undefined) the binding response (% of control) was inconclusive: 118%. For `CCSc1nc2sc3c(c2c(=O)n1-c1ccc(OC)cc1)CCN(C)C3`, the binding response (% of control) was inconclusive: 6.23%. In the case of `COc1cc(NC(=O)CSc2nnc3c(C)cc4c(C)ccc(C)c4n23)c(C(=O)O)cc1OC`, the binding response (% of control) is reported as inactive: 99.7%. `Cc1ccc(C)c(C(=O)CN2Cc3ccccc3C2=O)c1` was tested, and the binding response (% of control) was inconclusive: 84.4%. In the case of `COc1ccccc1/C=C1\Oc2cc(OC(=O)N3CCOCC3)ccc2C1=O`, the binding response (% of control) is reported as inconclusive: 105%. With `O=C1/C(=C/c2cccs2)SC(=S)N1N1CCOCC1` the binding response (% of control) was inconclusive: 313%. For `CCCCC1=NN(C(=O)c2ccncc2)C(O)(C(F)(F)F)C1` (centres undefined), the binding response (% of control) was inconclusive: 237%. In the case of `FC(F)(F)c1ccncc1-c1nnnn1-c1ccc(Cl)cc1`, the binding response (% of control) is reported as inconclusive: 89.2%. `CCn1c(SCC(=O)N(C)C2CCS(=O)(=O)C2)nnc1-c1cccs1` (centres undefined) was tested, and the binding response (% of control) was inconclusive: 102%. `CC(C)(C)OC(=O)[C@H](Cc1ccccc1)NC(=O)c1[nH]cnc1C(=O)Nc1ccc(Cl)cc1` was tested, and the binding response (% of control) was inconclusive: 101%.
